According to PubChem BioAssay AID330 (DTP/NCI, 2004):
The list is a part of this screen's results and no random one: it is rich in T/C values a quarter to a half above the control, in often repeated tests (any T/C) and in doses without a T/C. Other doses and runs of a compound stand elsewhere. T/C gives the treated animals as a percentage of the vehicle group. Some entries give survivors of the animals treated and no T/C: the source files T/C as zero there, which appears to mark a toxic dose or a test without result, not a measured value. Some doses without a T/C left all or most animals alive at the check, yet need not have been tolerated: the source hardly ever lists a survival T/C far under the control, and the zero likely stands for such cases as well. Counts of survivors are from the toxicity check (mostly the fifth day) where no day follows; animals may have died later. Schedules are NCI's codes, read here as Q, the interval in days (D) or hours (H), X, the number of doses. Some doses were run more than once; the values are given in rising order. Where survival is the endpoint, this PubChem deposit counts one and a half times the control or more as active, and values a quarter to a half above the control carry no call in these data; other NCI protocols may use other cut-offs. Some T/C values are followed by the survivors on the day toxicity was checked, most often the fifth; without a count, all were alive then.

Tested on: P388 leukemia ip, CD2F1 mice, survival T/C
Assay: NCI In Vivo Anticancer Drug Screen. Data for tumor model P388 Leukemia (intraperitoneal) in CD2F1 (CDF1) mice
Details: T/C endpoint: median survival time, higher T/C = longer survival
[1] = dose: 25.0 mg/kg/injection, schedule: Q01DX009 (ip), vehicle: Klucel (hydroxypropylcellulose) (HPC)
[2] = dose: 100.0 mg/kg/injection, schedule: Q01DX009 (ip), vehicle: Klucel (hydroxypropylcellulose) (HPC)
[3] = dose: 200.0 mg/kg/injection, schedule: Q01DX009 (ip), vehicle: saline with Tween-80
[4] = dose: 100.0 mg/kg/injection, schedule: Q01DX009 (ip), vehicle: saline
[5] = dose: 200.0 mg/kg/injection, schedule: Q01DX009 (ip), vehicle: saline
[6] = dose: 240.0 mg/kg/injection, schedule: Q01DX005 (ip), vehicle: saline with Tween-80
[7] = dose: 60.0 mg/kg/injection, schedule: Q01DX005 (ip), vehicle: saline with Tween-80
[8] = dose: 120.0 mg/kg/injection, schedule: Q01DX005 (ip), vehicle: saline with Tween-80
[9] = dose: 50.0 mg/kg/injection, schedule: Q01DX009 (ip), vehicle: saline
[10] = dose: 200.0 mg/kg/injection, schedule: Q01DX005 (ip), vehicle: saline with Tween-80
[11] = dose: 100.0 mg/kg/injection, schedule: Q01DX005 (ip), vehicle: saline with Tween-80
[12] = dose: 400.0 mg/kg/injection, schedule: Q01DX009 (ip), vehicle: distilled water + Tween-80

C[C@H](N)C(=O)N[C@@H]1[C@H]2C(=C(O)C[C@@H](O)[C@@H]2O)C(=O)O[C@]1(C)C(Cl)Cl
T/C (dose: 0.39 mg/kg/injection, schedule: Q01DX009 (ip), vehicle: Klucel (hydroxypropylcellulose) (HPC)): 126 % of control | survivor count (dose: 6.25 mg/kg/injection, schedule: Q01DX009 (ip), vehicle: Klucel (hydroxypropylcellulose) (HPC)): 1 of 6, 2 of 6, 6 of 6 | survivor count (dose: 12.5 mg/kg/injection, schedule: Q01DX009 (ip), vehicle: Klucel (hydroxypropylcellulose) (HPC)): 1 of 6 | survivor count [1]: 0 of 6 | survivor count (dose: 50.0 mg/kg/injection, schedule: Q01DX009 (ip), vehicle: Klucel (hydroxypropylcellulose) (HPC)): 0 of 6 | survivor count [2]: 0 of 6

CCCCN=C(N)N/N=C(\C)c1cccc2c1Cc1c(/C(C)=N/NC(N)=NCCCC)cccc1-2
survivor count (dose: 25.0 mg/kg/injection, schedule: Q04DX002 (ip), vehicle: saline with Tween-80): 3 of 6 | survivor count (dose: 50.0 mg/kg/injection, schedule: Q04DX002 (ip), vehicle: saline with Tween-80): 0 of 6

O=C1CC2(C(=O)N1CN1CCN(c3ccc(F)cc3)CC1)c1ccccc1-c1ccccc12 (tested in a mixture with another compound)
survivor count (dose: 200.0 mg/kg/injection, schedule: Q04DX003 (ip), vehicle: saline with Tween-80): 1 of 6 | survivor count (dose: 400.0 mg/kg/injection, schedule: Q04DX003 (ip), vehicle: saline with Tween-80): 0 of 6

CC(=O)[O][Pb]([O]C(C)=O)([c]1ccccc1)[c]1ccccc1
T/C (dose: 26.6 mg/kg/injection, schedule: Q01DX009 (ip), vehicle: saline with Tween-80): 126 % of control [5 of 6 alive] | T/C (dose: 60.0 mg/kg/injection, schedule: Q01DX009 (ip), vehicle: saline with Tween-80): 140 % of control | T/C [2]: 131 % of control [5 of 6 alive]

Cc1ccc(NS(=O)(=O)c2ccc([N+](=O)[O-])cc2)cc1
survivor count [3]: 6 of 6

O=S1(=O)C2C=CC1CCCC2
survivor count [4]: 6 of 6 | survivor count [5]: 6 of 6

CCN(CC)CC(C)(C)C(=O)/C=C/c1ccc(/C=C/C(=O)C(C)(C)CN(CC)CC)cc1
T/C (dose: 15.0 mg/kg/injection, schedule: Q01DX005 (ip), vehicle: saline): 126 and 130 % of control | T/C (dose: 30.0 mg/kg/injection, schedule: Q01DX005 (ip), vehicle: saline): 134 and 138 % of control | survivor count (dose: 60.0 mg/kg/injection, schedule: Q01DX005 (ip), vehicle: saline): 4 of 6 and 6 of 6 | survivor count (dose: 120.0 mg/kg/injection, schedule: Q01DX005 (ip), vehicle: saline): 0 of 6 | survivor count (dose: 240.0 mg/kg/injection, schedule: Q01DX005 (ip), vehicle: saline): 0 of 6

Cc1ccc(NC(=O)/C=C2\CONC(c3ccccc3)=N2)cc1
survivor count [6]: 6 of 6

CCCCCCCCCCCCCCCCOc1ccc(-c2cc(Cl)c3cc(S(=O)(=O)F)ccc3n2)cc1S(=O)(=O)F
survivor count (dose: 100.0 mg/kg/injection, schedule: Q01DX009 (ip), vehicle: saline with Tween-80): 6 of 6 | survivor count (dose: 100.0 mg/kg/injection, schedule: Q04DX003 (ip), vehicle: saline with Tween-80): 6 of 6

NC(CCl)=NCC1C2CC3CC(C2)CC1C3 (stereo not drawn)
T/C (dose: 15.0 mg/kg/injection, schedule: Q01DX005 (ip), vehicle: saline with Tween-80): 127 and 131 % of control | T/C (dose: 30.0 mg/kg/injection, schedule: Q01DX005 (ip), vehicle: saline with Tween-80): 126 and 135 % of control | survivor count [7]: 1 of 6 and 5 of 6 | survivor count [8]: 0 of 6 | survivor count [6]: 0 of 6

CC(C)(C)c1ccc(N)c(C(O)(C(F)(F)F)C(F)(F)F)c1
T/C [7]: 90, 105, 106, 107 % of control | T/C [8]: 87, 98, 109, 122 % of control | T/C [6]: 100, 112, 113 % of control | survivor count [6]: 6 of 6

CC1=C(Sc2ccc(Br)cc2)C(N)Nc2nc(N)nc(N)c21 (stereo not drawn)
survivor count [6]: 5 of 6

O=C(O)CCc1cccnc1
T/C (dose: 600.0 mg/kg/injection, schedule: Q01DX009 (ip), vehicle: saline with Tween-80): 127 % of control

C(=NCc1ccccc1)c1ccccc1-c1ccccc1C=NCc1ccccc1
survivor count [1]: 6 of 6

COC(OC(CO)C(O)S(=O)(=O)O)C(O)S(=O)(=O)O (stereo not drawn)
T/C [9]: 129 % of control | T/C [4]: 142 % of control | T/C [5]: 138 % of control

CCOC(=O)[C]1([Pb]([CH3])([CH3])[CH3])N=NC(C(=O)OC)=C1C(=O)OC (stereo not drawn)
survivor count (dose: 6.25 mg/kg/injection, schedule: Q01DX009 (ip), vehicle: saline): 5 of 6 | survivor count (dose: 12.5 mg/kg/injection, schedule: Q01DX009 (ip), vehicle: saline): 0 of 6 | survivor count (dose: 25.0 mg/kg/injection, schedule: Q01DX009 (ip), vehicle: saline): 0 of 6 | survivor count [9]: 0 of 6 | survivor count [4]: 0 of 6 | survivor count [5]: 0 of 6

NS(=O)(=O)c1ccc2c(=O)c(C(=O)O)c[nH]c2c1
survivor count (dose: 12.5 mg/kg/injection, schedule: Q01DX009 (ip), vehicle: saline with Tween-80): 6 of 6 | survivor count (dose: 25.0 mg/kg/injection, schedule: Q01DX009 (ip), vehicle: saline with Tween-80): 6 of 6 | survivor count (dose: 50.0 mg/kg/injection, schedule: Q01DX009 (ip), vehicle: saline with Tween-80): 6 of 6 | survivor count [5]: 6 of 6

N#C/C(=C\C(Cl)=C/c1ccccc1)C(N)=S
survivor count [5]: 6 of 6

CC1Cc2ccc(OCCN(C)C)cc2C1=O (stereo not drawn)
survivor count [10]: 0 of 5

CCCCCC(=O)NC1C(O)OC(CO)C(O)C1O (stereo not drawn)
survivor count (dose: 200.0 mg/kg/injection, schedule: Q01DX005 (ip), vehicle: Klucel (hydroxypropylcellulose) (HPC)): 2 of 5

O=C1C2=C(Nc3cc(Cl)ccc3N2)OC1c1ccc(Cl)c(Cl)c1 (stereo not drawn)
survivor count (dose: 100.0 mg/kg/injection, schedule: Q01DX005 (ip), vehicle: Klucel (hydroxypropylcellulose) (HPC)): 6 of 6

Cc1ccc2c(c1)n([O-])c1cc(Cl)ccc1[n+]2=O
T/C (dose: 25.0 mg/kg/injection, schedule: Q01DX005 (ip), vehicle: saline with Tween-80): 133 % of control | T/C (dose: 50.0 mg/kg/injection, schedule: Q01DX005 (ip), vehicle: saline with Tween-80): 126 and 134 % of control | T/C [11]: 138 and 148 % of control | survivor count [10]: 4 of 6 and 6 of 6

Cc1cc(C)n(-c2ccc(-c3cc(=O)c4ccccc4o3)cc2)n1
survivor count [10]: 6 of 6

Cc1ncc(N)c2c1OC(C)(C)OC2
survivor count [11]: 0 of 6 | survivor count [10]: 0 of 6

C[Si](C)(C)O/C=C1\CCCCC1=O
survivor count [3]: 3 of 6

C/C(=N\NC(=O)CCCl)c1ccc([N+](=O)[O-])cc1
survivor count (dose: 42.0 mg/kg/injection, schedule: Q01DX009 (ip), vehicle: saline with Tween-80): 6 of 6 | survivor count (dose: 84.0 mg/kg/injection, schedule: Q01DX009 (ip), vehicle: saline with Tween-80): 6 of 6 | survivor count (dose: 168.0 mg/kg/injection, schedule: Q01DX009 (ip), vehicle: saline with Tween-80): 5 of 6

CCCCCC(C)N(C)C(=O)CNCC(C)C (stereo not drawn)
survivor count [10]: 0 of 6

O=C(Nc1ccc([N+](=O)[O-])cc1)Nc1nncs1
T/C (dose: 200.0 mg/kg/injection, schedule: Q01DX009 (ip), vehicle: distilled water + Tween-80): 132 % of control [5 of 6 alive] | T/C [12]: 142 % of control [5 of 6 alive] | survivor count [12]: 1 of 6

CCOC(=O)C(c1ccccc1)N(CCCN(CC)CC)c1ccccc1 (stereo not drawn)
survivor count [11]: 0 of 5 | survivor count [10]: 0 of 5

CCN(CC)Cc1ccccc1CO
survivor count (dose: 200.0 mg/kg/injection, schedule: Q01DX005 (ip), vehicle: saline): 0 of 6

CC(C(=O)O)c1cccc2nc(-c3ccccc3)oc12 (stereo not drawn)
survivor count (dose: 400.0 mg/kg/injection, schedule: Q01DX009 (ip), vehicle: saline with Tween-80): 2 of 6

N#CCCSC(=S)N1CCCCC1
survivor count (dose: 400.0 mg/kg/injection, schedule: Q01DX009 (ip), vehicle: Klucel (hydroxypropylcellulose) (HPC)): 1 of 6
